# Assay results as given in the supplement of paper PMC12009310.
# Counter-ions that a name gives are not always drawn. ± gives the standard deviation of the averaged measurements. This is one part of the list. Baselines shift from plate to plate; read single values as rough.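 The cells are a mouse kidney inner medullary collecting duct line, silenced either for the ciliary gene Rpgrip1l or with a non-targeting control siRNA.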
# Key:
# mIMCD3 [1] = assay: robust z score of cell number vs plate controls; higher = more cells (less cytotoxic); settings: 10 µM, 48 h
# mIMCD3 [2] = assay: robust z score of cilia incidence (% cells with single cilium) vs plate controls; higher = more ciliated cells; settings: 10 µM; 48 h; siRNA: siScr
# mIMCD3 [3] = assay: robust z score of cilia incidence (% cells with single cilium) vs plate controls; higher = more ciliated cells (rescue of cilia loss); settings: 10 µM; 48 h; siRNA: siRpgrip1l
Structure (SMILES),robust z score of cell number (mIMCD3 [1]; siRNA: siRpgrip1l),robust z score of cell number (mIMCD3 [1]; siRNA: siScr),robust z score of cilia incidence (mIMCD3 [2]),robust z score of cilia incidence (mIMCD3 [3])
CN(CCOc1ccc(-c2ccc3c(c2)OCO3)cc1C(C)(C)C)CC(=O)O,-19.3 ± 21,-5.2 ± 0.31,-6.72 ± 11,-11.9 ± 5.8
CN(C)CCCn1cc(C2=C(c3c[nH]c4ccccc34)C(=O)NC2=O)c2ccccc21,-31.2 ± 14,-22.4 ± 5.5,-13.5 ± 1.1,-19.7 ± 8
O=C(c1ccc(F)cc1)C1CCN(CCn2c(=O)[nH]c3ccccc3c2=O)CC1 [Ketanserin tartrate],1.27 ± 5.2,-6.49 ± 6,0.626 ± 6.1,-10.2 ± 6.1
O=Nc1ccc(O)c2ncccc12,-62.1 ± 54,-51.7 ± 1.6,-76 ± 17,-36.6 ± 8.6
CC12CC3CC(C)(C1)CC(N)(C3)C2 [Memantine hydrochloride],3.34 ± 4,3.57 ± 2.8,-2.65 ± 0.19,-7.38 ± 4.1
CC1(C)C[C@@H]1C(=O)N/C(=C\CCCCSC[C@H](N)C(=O)O)C(=O)O [Cilastatin sodium],-7.57 ± 4.7,0.97 ± 2.1,-0.0211 ± 1.8,-7.59 ± 0.69
O=C1c2ccccc2S(=O)(=O)N1CCCCN1CCN(c2ncccn2)CC1 [Ipsapirone],-20.2 ± 15,-25.8 ± 2.5,-19.8 ± 0.58,-14.3 ± 4.4
COC(=O)C[C@](O)(CCCC(C)(C)O)C(=O)O[C@@H]1C(OC)=C[C@]23CCCN2CCc2cc4c(cc2[C@H]13)OCO4 [Homoharringtonine],-61.7 ± 53,-51.6 ± 1.6,-78.5 ± 25,-45.9 ± 1.5
O=c1c(O)c(-c2ccc(O)c(O)c2)oc2cc(O)cc(O)c12 [Quercetin],-52 ± 44,-45.2 ± 3.4,-54.1 ± 19,-36.9 ± 4
COc1ccccc1N1CCN(CCCCN2C(=O)c3ccccc3C2=O)CC1 [NAN-190 hydrobromide],-8.03 ± 5.4,-5.42 ± 9.1,-0.102 ± 1.2,-8.62 ± 2.2
CN(CCCN1c2ccccc2CCc2ccccc21)CC(=O)c1ccc(Cl)cc1 [Lofepramine],-17.3 ± 8.8,-106 ± 92,-30.3 ± 6.9,-35.7 ± 1.2
Cc1cc(Cn2cnc3c2CC(C(=O)O)N(C(=O)C(c2ccccc2)c2ccccc2)C3)ccc1N(C)C (stereo not drawn),-62.9 ± 70,-2.5 ± 0.44,-0.38 ± 6.8,-5.69 ± 0.27
CNCCC(Oc1ccccc1OC)c1ccccc1 (stereo not drawn) [Nisoxetine hydrochloride],-4.3 ± 1.7,-5.47 ± 0.44,-6.32 ± 3.8,-9.98 ± 1.6
CN(CC[C@@H](Oc1ccc(-c2ccccc2)cc1)c1ccc(F)cc1)CC(=O)O [ALX 5407 hydrochloride],-8.06 ± 7.3,-5.55 ± 3.8,-1.1 ± 3.1,-20.7 ± 8.9
c1ccc(CN(CC2=NCCN2)c2ccccc2)cc1 [Antazoline hydrochloride],-3.24 ± 2.2,-3.08 ± 2.2,-2.66 ± 0.53,-7.04 ± 1.4
CCc1nn(CCCN2CCN(c3cccc(Cl)c3)CC2)c(=O)n1CCOc1ccccc1 [Nefazodone hydrochloride],-17.5 ± 16,-7.66 ± 3.1,-12.2 ± 4.9,-14.7 ± 5.2
COc1cc([C@@H]2c3cc4c(cc3[C@@H](O[C@@H]3O[C@@H]5CO[C@@H](C)O[C@H]5[C@H](O)[C@H]3O)[C@H]3COC(=O)[C@H]23)OCO4)cc(OC)c1O [Etoposide],-283 ± 200,-37.9 ± 8.9,-24 ± 6.7,-20.5 ± 5.5
"Cc1ccccc1N1CCN(S(=O)(=O)C[C@]23CC[C@H](C[C@@H]2NC(=O)[C@@H](N)CCS(C)(=O)=O)C3(C)C)CC1 [L-368,899 hydrochloride]",-5.99 ± 3,-24.6 ± 23,-0.0671 ± 2,-11.7 ± 3.5
O=C(O)Cc1nn(Cc2ccc(Br)cc2F)c(=O)c2ccccc12 [Statil],-2.09 ± 3.8,-1.49 ± 3.1,-1.55 ± 1.4,-6.17 ± 3.4
Oc1cc(O)cc(/C=C/c2ccc(O)c(O)c2)c1 [Piceatannol],-169 ± 190,-40.4 ± 8.3,-21.84 ± 0.2,-363 ± 220
CC(=O)O[C@@H]1C[C@H]2C(C)(C)C(=O)C=C[C@]2(C)[C@H]2CC[C@@]3(C)[C@H](c4ccoc4)OC(=O)[C@H]4O[C@]43[C@@]21C [Gedunin],-12 ± 12,-6.06 ± 0.97,-11.9 ± 3.7,-15.2 ± 2.4

Structure (SMILES),robust z score of cell number (mIMCD3 [1]; siRNA: siRpgrip1l),robust z score of cell number (mIMCD3 [1]; siRNA: siScr),robust z score of cilia incidence (mIMCD3 [2]),robust z score of cilia incidence (mIMCD3 [3])
NC(=O)c1ccc(-c2nc(-c3ccccn3)c(-c3ccc4c(c3)OCO4)[nH]2)cc1,-28.1 ± 29,-7.33 ± 4.1,-6.35 ± 4.2,-188 ± 92
CC[N+](CC)(CC)CC(=O)Nc1c(C)cccc1C [QX 314 bromide],-3.68 ± 0.77,-2.63 ± 1,-3.58 ± 2.5,-7.59 ± 3.9
Cn1cc(C(=O)OCC2CCN(CCNS(C)(=O)=O)CC2)c2ccccc21,-108 ± 61,-10.2 ± 3.8,-9.35 ± 7.6,-20.6 ± 8.2
CN1Cc2c(C(=O)OC(C)(C)C)ncn2-c2ccsc2C1=O,1.29 ± 3.3,-2.56 ± 2,-5.28 ± 3.8,-21.5 ± 20
N#CC(=C(/N)Sc1ccccc1N)/C(C#N)=C(/N)Sc1ccccc1N,-41.4 ± 55,-1.81 ± 2.2,0.979 ± 0.92,-6.8 ± 2.7
O=c1cc(N2CCOCC2)oc2c(-c3ccccc3)cccc12,-26.3 ± 20,-9.07 ± 1.5,0.331 ± 0.94,-11.5 ± 6.4
O=C(/C=C/c1c(C(=O)O)[nH]c2cc(Cl)cc(Cl)c12)Nc1ccccc1 [Gavestinel],-5.38 ± 2.7,2 ± 2.9,-1.74 ± 1.4,-9.24 ± 8.2
CC(Cc1ccccc1)(NC(=O)CN)c1ccccc1 (stereo not drawn) [Remacemide hydrochloride],-23.6 ± 24,-2.75 ± 2.2,0.305 ± 5,-137 ± 94
CC#CCOC(=O)C1=CCCN(C)C1 [Arecaidine but-2-ynyl ester tosylate],2.08 ± 8.8,-7.33 ± 3.8,0.8 ± 1.7,-7.03 ± 6.8
CCCCCCCCc1ccc(-c2ccc(C(=O)O)cc2)cc1,-18 ± 9.2,-18.2 ± 0.63,-16.2 ± 16,-26 ± 16
O=c1cc(-c2ccc(O)cc2)oc2cc(O)cc(O)c12 [Apigenin],-217 ± 170,-29.3 ± 7.3,-7.64 ± 13,-15.5 ± 4.6
CCCCCCCC/C=C\CCCCCCCC(=O)N[C@@H](CO)Cc1ccc(O)cc1,-43.6 ± 40,-43.3 ± 29,-123 ± 64,-121 ± 120
O=C(Cc1ccccc1)Nc1nc2ccc(Cl)cc2c2nc(-c3ccco3)nn12,-14.5 ± 8.5,-5.44 ± 1.3,4.01 ± 0.42,-7.21 ± 0.59
CC(C)(C(=O)O)c1ccc(C(O)CCCN2CCC(C(O)(c3ccccc3)c3ccccc3)CC2)cc1 (stereo not drawn) [Fexofenadine hydrochloride],-4.32 ± 5.1,-2.2 ± 0.81,-0.632 ± 2.4,-8.04 ± 3
CCCCNC(=O)[C@@H]1Cc2ccccc2N1C(=O)[C@@H](N)CC [Butabindide oxalate],-38.1 ± 30,-9.11 ± 4.8,-15.3 ± 22,-24.9 ± 24
CN1CCN2c3ncccc3Cc3ccccc3C2C1 (stereo not drawn) [Mirtazepine],7.31 ± 11,0.754 ± 6.3,-5.6 ± 2.8,-20 ± 9.4
CC(C)(C)n1nc(-c2cccc3ccccc23)c2c(N)ncnc21 [1-Naphthyl PP1],-18.4 ± 18,-7.59 ± 3.2,-7.85 ± 9.6,-9.6 ± 2.8
N#Cc1cc2nc(O)c(O)nc2cc1[N+](=O)[O-] [CNQX disodium salt],-8.82 ± 9.6,-2.69 ± 6.8,0.201 ± 0.23,-3.96 ± 0.58
N#C/C(=C\c1ccc(O)c(O)c1)C(=O)Nc1ccccc1,-53.5 ± 57,-23.2 ± 17,-2.83 ± 4.5,-15 ± 3.1
CCSC(=N)N [EIT hydrobromide],1.17 ± 5,-1.79 ± 2.5,0.757 ± 4.7,-9.91 ± 7.9
CC[N+](CC)(CC)CCOc1ccc(/C=C/c2ccccc2)cc1,-254 ± 180,-31.5 ± 5.9,-12 ± 11,-11.5 ± 3.1

Structure (SMILES),robust z score of cell number (mIMCD3 [1]; siRNA: siRpgrip1l),robust z score of cell number (mIMCD3 [1]; siRNA: siScr),robust z score of cilia incidence (mIMCD3 [2]),robust z score of cilia incidence (mIMCD3 [3])
O=C(/C=C/c1ccccc1)NC(NC(=S)Nc1cccc2cccnc12)C(Cl)(Cl)Cl (stereo not drawn) [Salubrinal],-20.8 ± 11,-17.8 ± 4.2,-5.14 ± 3.8,-13.2 ± 7.8
N=C(N)SCCc1c[nH]cn1 [Imetit dihydrobromide],-1.86 ± 1.5,-1.19 ± 2.5,1.37 ± 0.37,-7.78 ± 0.35
COc1cc2c(CCNC(C)=O)c[nH]c2cc1Cl [6-Chloromelatonin],7.32 ± 15,-1.62 ± 1.1,1.41 ± 0.071,-7.76 ± 5
Cc1ccc(C(=O)Cn2c3c(sc2=N)CCCC3)cc1 [Pifithrin- α hydrobromide],-57.7 ± 34,-0.452 ± 1.3,-2.07 ± 2.1,-12.4 ± 1.8
CCN(CC)CCOC(=O)C1(c2ccc([N+](=O)[O-])cc2)CCCC1 [Nitrocaramiphen hydrochloride],-50.7 ± 30,-42.6 ± 24,-28.2 ± 2.1,-31.9 ± 12
NS(=O)(=O)Cc1noc2ccccc12 [Zonisamide],-4.84 ± 0.79,-30.6 ± 29,-1.48 ± 7.2,-11 ± 0.81
CCCOc1ccccc1-c1nc2[nH]nnc2c(=O)[nH]1 [Zaprinast],-4.45 ± 1.1,-8.6 ± 5.8,-4.65 ± 1.1,-10.9 ± 4.2
COc1ccc(CCCOC(Cn2ccnc2)c2ccc(OC)cc2)cc1 (stereo not drawn),-51.1 ± 40,-20.6 ± 3.1,-14.6 ± 1.6,-29.2 ± 6.2
Cc1ccc(NC(=O)c2cccc(N(C)C)c2)cc1NC(=O)c1ccc(O)cc1,-50.5 ± 10,2.52 ± 3.5,-2.07 ± 3.1,-22.2 ± 8.3
COc1ccc(-c2ccc(=N)n(CCCC(=O)O)n2)cc1,-19.6 ± 17,-2.8 ± 0.73,1.63 ± 0.38,-6.49 ± 4.2
COc1ccc(CC(=O)NC(/N=C(\NC#N)Nc2cccc3ncccc23)C(C)(C)C)cc1OC (stereo not drawn),-49.2 ± 60,-7.44 ± 7,-12.1 ± 18,-8.49 ± 2.5
CC[C@H](CO)Nc1nc(Nc2cccc(-c3ccccn3)c2)c2ncn(C(C)C)c2n1 [(R)-DRF053 dihydrochloride],-20.2 ± 23,-2.49 ± 5.1,0.788 ± 0.66,-4.42 ± 0.56
CSc1cc2c(cc1C(F)(F)F)N(C(=O)Nc1cccnc1)CC2,-33 ± 32,-0.783 ± 0.065,5.63 ± 4.1,-5.84 ± 1.4
COc1cc2c(cc1OC)-c1cc3nc4ccccc4nc3n1C(C)(C)C2,-34.5 ± 30,-34.9 ± 21,-25 ± 6.3,-44.1 ± 34
O=Nc1c(-c2c(O)[nH]c3ccccc23)[nH]c2ccccc12 [Indirubin-3'-oxime],-44.7 ± 41,-44.8 ± 29,-115 ± 60,-120 ± 110
N=C(N)SCCc1ccc(OCc2ccc([N+](=O)[O-])cc2)cc1 [KB-R7943 mesylate],-306 ± 220,-40.2 ± 9.1,-48.9 ± 11,-34.1 ± 10
CC(C)[C@H](CO)Nc1nc(Nc2ccc(C(=O)O)c(Cl)c2)c2ncn(C(C)C)c2n1 [Purvalanol B],35.8 ± 40,4.87 ± 4.9,-6.26 ± 4.4,-129 ± 81
CC(C)C(=O)c1c(C(C)C)nn2ccccc12 [Ibudilast],-10.1 ± 6.2,-8.52 ± 6.7,-8.21 ± 5.6,-12.6 ± 5.2
N[C@@H]1CCN(O)C1=O,-1.89 ± 4.7,2.65 ± 1.2,0.472 ± 0.077,-6.02 ± 6.5
CCCCCCCCCCC[C@@H](C[C@@H]1OC(=O)[C@H]1CCCCCC)OC(=O)[C@H](CC(C)C)NC=O [Orlistat],-31.6 ± 30,-13.6 ± 12,-10.8 ± 11,-22 ± 17

# Another view of 3 compounds above:
Structure (SMILES)	robust z score of cell number (mIMCD3 [1]; siRNA: siRpgrip1l)	robust z score of cell number (mIMCD3 [1]; siRNA: siScr)	robust z score of cilia incidence (mIMCD3 [2])	robust z score of cilia incidence (mIMCD3 [3])
Cc1ccc(NC(=O)c2cccc(N(C)C)c2)cc1NC(=O)c1ccc(O)cc1	-50.5 ± 10	2.52 ± 3.5	-2.07 ± 3.1	-22.2 ± 8.3
COc1ccc(-c2ccc(=N)n(CCCC(=O)O)n2)cc1	-19.6 ± 17	-2.8 ± 0.73	1.63 ± 0.38	-6.49 ± 4.2
COc1ccc(CC(=O)NC(/N=C(\NC#N)Nc2cccc3ncccc23)C(C)(C)C)cc1OC (stereo not drawn)	-49.2 ± 60	-7.44 ± 7	-12.1 ± 18	-8.49 ± 2.5
